Data on one molecule can be found in the supplement of paper PMC8728848.

The other results are listed elsewhere or left out.

Common to all, as to experiment: glycan array binding signal (z-score within array); higher = stronger binding
Settings in all cases: glycan notation: IUPAC condensed, linker removed

Experiment [1] has as its target GlcNAc(b1-3)Gal(b1-4)GlcNAc(b1-2)Man(a1-3)[GlcNAc(b1-3)Gal(b1-4)GlcNAc(b1-2)Man(a1-6)]Man(b1-4)GlcNAc(b1-4)[Fuc(a1-6)]GlcNAc. The essentials: (§1)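 The binding signal is a Z-score computed within each array and averaged over linkers. Arrays of the same protein sequence at different concentrations or buffers were also averaged together. Data originate from 3228 arrays in the Consortium for Functional Glycomics database, kept only where the protein sequence was available.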

Experiment [2] concerns the target GlcNAc(b1-3)Gal(b1-4)GlcNAc(b1-2)[GlcNAc(b1-3)Gal(b1-4)GlcNAc(b1-6)]Man(a1-6)[GlcNAc(b1-3)Gal(b1-4)GlcNAc(b1-2)Man(a1-3)]Man(b1-4)GlcNAc(b1-4)GlcNAc. The essentials: as §1
Experiment [3] deals with GlcNAc(b1-3)Gal(b1-4)GlcNAc(b1-3)Gal(b1-4)GlcNAc. The essentials:
as §1

In experiment [4] the target is GlcNAc(b1-3)Gal(b1-4)GlcNAc(b1-3)Gal(b1-4)GlcNAc(b1-2)Man(a1-3)[GlcNAc(b1-3)Gal(b1-4)GlcNAc(b1-3)Gal(b1-4)GlcNAc(b1-2)Man(a1-6)]Man(b1-4)GlcNAc(b1-4)GlcNAc. The essentials:
as §1

In experiment [5] the target is GlcNAc(b1-3)Gal(b1-4)GlcNAc(b1-3)Gal(b1-4)GlcNAc(b1-2)Man(a1-3)[GlcNAc(b1-3)Gal(b1-4)GlcNAc(b1-3)Gal(b1-4)GlcNAc(b1-2)Man(a1-6)]Man(b1-4)GlcNAc(b1-4)[Fuc(a1-6)]GlcNAc. The essentials:
as §1

Experiment [6] has as its target GlcNAc(b1-3)Gal(b1-4)GlcNAc(b1-3)Gal(b1-4)GlcNAc(b1-2)[GlcNAc(b1-3)Gal(b1-4)GlcNAc(b1-3)Gal(b1-4)GlcNAc(b1-6)]Man(a1-6)[GlcNAc(b1-3)Gal(b1-4)GlcNAc(b1-3)Gal(b1-4)GlcNAc(b1-2)Man(a1-3)]Man(b1-4)GlcNAc(b1-4)[Fuc(a1-6)]GlcNAc. The essentials: as §1
Experiment [7] deals with GlcNAc(b1-3)Gal(b1-4)GlcNAc(b1-3)Gal(b1-4)GlcNAc(b1-3)Gal(b1-4)GlcNAc(b1-2)Man(a1-3)[GlcNAc(b1-3)Gal(b1-4)GlcNAc(b1-3)Gal(b1-4)GlcNAc(b1-3)Gal(b1-4)GlcNAc(b1-2)Man(a1-6)]Man(b1-4)GlcNAc(b1-4)GlcNAc. The essentials: as §1
In experiment [8] the target is GlcNAc(b1-3)Gal(b1-4)GlcNAc(b1-3)Gal(b1-4)GlcNAc(b1-3)Gal(b1-4)GlcNAc(b1-2)Man(a1-3)[GlcNAc(b1-3)Gal(b1-4)GlcNAc(b1-3)Gal(b1-4)GlcNAc(b1-3)Gal(b1-4)GlcNAc(b1-2)Man(a1-6)]Man(b1-4)GlcNAc(b1-4)[Fuc(a1-6)]GlcNAc. The essentials:
as §1

For experiment [9], the target named is GlcNAc(b1-3)Gal(b1-4)GlcNAc(b1-3)Gal(b1-4)GlcNAc(b1-3)Gal(b1-4)GlcNAc(b1-2)[GlcNAc(b1-3)Gal(b1-4)GlcNAc(b1-3)Gal(b1-4)GlcNAc(b1-3)Gal(b1-4)GlcNAc(b1-6)]Man(a1-6)[GlcNAc(b1-3)Gal(b1-4)GlcNAc(b1-3)Gal(b1-4)GlcNAc(b1-3)Gal(b1-4)GlcNAc(b1-2)Man(a1-3)]Man(b1-4)GlcNAc(b1-4)[Fuc(a1-6)]GlcNAc. The essentials:
as §1

Experiment [10] addresses GlcNAc(b1-3)Gal(b1-4)GlcNAc(b1-3)Gal(b1-4)GlcNAc(b1-3)Gal(b1-4)GlcNAc(b1-3)Gal(b1-4)GlcNAc(b1-2)Man(a1-3)[GlcNAc(b1-3)Gal(b1-4)GlcNAc(b1-3)Gal(b1-4)GlcNAc(b1-3)Gal(b1-4)GlcNAc(b1-3)Gal(b1-4)GlcNAc(b1-2)Man(a1-6)]Man(b1-4)GlcNAc(b1-4)GlcNAc. The essentials:
as §1

Experiment [11] addresses GlcNAc(b1-3)Gal(b1-4)GlcNAc(b1-3)Gal(b1-4)GlcNAc(b1-3)Gal(b1-4)GlcNAc(b1-3)Gal(b1-4)GlcNAc(b1-2)Man(a1-3)[GlcNAc(b1-3)Gal(b1-4)GlcNAc(b1-3)Gal(b1-4)GlcNAc(b1-3)Gal(b1-4)GlcNAc(b1-3)Gal(b1-4)GlcNAc(b1-2)Man(a1-6)]Man(b1-4)GlcNAc(b1-4)[Fuc(a1-6)]GlcNAc. The essentials:
as §1

For experiment [12], the target named is GlcNAc(b1-3)Gal(b1-4)GlcNAc(b1-3)Gal(b1-4)GlcNAc(b1-3)Gal(b1-4)GlcNAc(b1-3)Gal(b1-4)GlcNAc(b1-2)[GlcNAc(b1-3)Gal(b1-4)GlcNAc(b1-3)Gal(b1-4)GlcNAc(b1-3)Gal(b1-4)GlcNAc(b1-3)Gal(b1-4)GlcNAc(b1-6)]Man(a1-6)[GlcNAc(b1-3)Gal(b1-4)GlcNAc(b1-3)Gal(b1-4)GlcNAc(b1-3)Gal(b1-4)GlcNAc(b1-3)Gal(b1-4)GlcNAc(b1-2)Man(a1-3)]Man(b1-4)GlcNAc(b1-4)[Fuc(a1-6)]GlcNAc. The essentials:
as §1

Experiment [13] deals with GlcNAc(b1-3)Gal(b1-4)GlcNAc(b1-3)Gal(b1-4)GlcNAc(b1-3)GalNAc. The essentials:
as §1

In experiment [14] the target is GlcNAc(b1-3)Gal(b1-4)GlcNAc(b1-3)GalNAc. The essentials: as §1
The target of experiment [15] is GlcNAc(b1-3)Gal(b1-4)GlcNAc(b1-3)[GlcNAc(b1-3)Gal(b1-4)GlcNAc(b1-3)]GalNAc. The essentials:
as §1

Experiment [16] addresses GlcNAc(b1-3)Gal(b1-4)GlcNAc(b1-6)[Gal(b1-3)]GalNAc. The essentials: as §1
For experiment [17], the target named is GlcNAc(b1-3)Gal(b1-4)GlcNAc(b1-6)[GlcNAc(b1-3)Gal(b1-3)]GalNAc. The essentials:
as §1

Experiment [18] concerns the target GlcNAc(b1-3)Gal(b1-4)GlcNAc(b1-6)[GlcNAc(b1-3)]Gal(b1-4)GlcNAc. The essentials:
as §1

A further experiment has as its target GlcNAc(b1-3)GalNAc. The essentials: as §1

B1: SP15308F-bth-333-19-333 (Bacteroides thetaiotaomicron) (protein)
chain: SCNNEWESEQYVQMVSFKAPVNAQGVTPIYIRYKPEGKVTYQLPLIVSGSTMNSKDLNVHVGLDLDTLDVLNVEHFGSRKELFFKPLENKYYEFPETVQIPAGECTSLLPIDFALKDLDQVDKWVLPLAIQSNDPSHNYQANPRKFYRRAMLRISPFNDYSGQYSATAYKVYFKGNEKEAIVPEYHTSYVIDDKTIFFYAGLIDIDRLDRKYYKIKFEFTEEKIDLQTRKLKISSDNEDINLVVKGQPSYTVEEEMDATRPYLKHIYVTINNLEYEFTDYTSVPGYPLEYVVKGSLTMERKINTQIPDEDQAIEW
On to B1, for which the “glycan array binding signal (z-score)” value in experiment [1] is 0.789; in experiment [2], 2.85; in [3], -0.237; in [4], 0.614; in experiment [5], -0.419; in [6] it was -0.319. The “glycan array binding signal (z-score)” value was 1.2 in experiment [7]; 0.405 in experiment [8]; 0.587 in experiment [9]; -0.759 in experiment [10]; 2.43 in [11]; 0.208 in experiment [12]. Moreover, the “glycan array binding signal (z-score)” value in [13] is -0.605; in experiment [14], 1.39; in [15], 0.497; in experiment [16], -0.053; in [17] it was -0.838; in experiment [18] it was -0.653. Besides, the “glycan array binding signal (z-score)” value with GlcNAc(b1-3)GalNAc was 0.057.
